In the supplement of paper PMC10849652:
This is one part of the list.

Amino acid sequences for entries named in this document (tags omitted). A change or cut given only in a name is not applied to a line headed by its entry.
UniProt Q14152, whole entry, looked up: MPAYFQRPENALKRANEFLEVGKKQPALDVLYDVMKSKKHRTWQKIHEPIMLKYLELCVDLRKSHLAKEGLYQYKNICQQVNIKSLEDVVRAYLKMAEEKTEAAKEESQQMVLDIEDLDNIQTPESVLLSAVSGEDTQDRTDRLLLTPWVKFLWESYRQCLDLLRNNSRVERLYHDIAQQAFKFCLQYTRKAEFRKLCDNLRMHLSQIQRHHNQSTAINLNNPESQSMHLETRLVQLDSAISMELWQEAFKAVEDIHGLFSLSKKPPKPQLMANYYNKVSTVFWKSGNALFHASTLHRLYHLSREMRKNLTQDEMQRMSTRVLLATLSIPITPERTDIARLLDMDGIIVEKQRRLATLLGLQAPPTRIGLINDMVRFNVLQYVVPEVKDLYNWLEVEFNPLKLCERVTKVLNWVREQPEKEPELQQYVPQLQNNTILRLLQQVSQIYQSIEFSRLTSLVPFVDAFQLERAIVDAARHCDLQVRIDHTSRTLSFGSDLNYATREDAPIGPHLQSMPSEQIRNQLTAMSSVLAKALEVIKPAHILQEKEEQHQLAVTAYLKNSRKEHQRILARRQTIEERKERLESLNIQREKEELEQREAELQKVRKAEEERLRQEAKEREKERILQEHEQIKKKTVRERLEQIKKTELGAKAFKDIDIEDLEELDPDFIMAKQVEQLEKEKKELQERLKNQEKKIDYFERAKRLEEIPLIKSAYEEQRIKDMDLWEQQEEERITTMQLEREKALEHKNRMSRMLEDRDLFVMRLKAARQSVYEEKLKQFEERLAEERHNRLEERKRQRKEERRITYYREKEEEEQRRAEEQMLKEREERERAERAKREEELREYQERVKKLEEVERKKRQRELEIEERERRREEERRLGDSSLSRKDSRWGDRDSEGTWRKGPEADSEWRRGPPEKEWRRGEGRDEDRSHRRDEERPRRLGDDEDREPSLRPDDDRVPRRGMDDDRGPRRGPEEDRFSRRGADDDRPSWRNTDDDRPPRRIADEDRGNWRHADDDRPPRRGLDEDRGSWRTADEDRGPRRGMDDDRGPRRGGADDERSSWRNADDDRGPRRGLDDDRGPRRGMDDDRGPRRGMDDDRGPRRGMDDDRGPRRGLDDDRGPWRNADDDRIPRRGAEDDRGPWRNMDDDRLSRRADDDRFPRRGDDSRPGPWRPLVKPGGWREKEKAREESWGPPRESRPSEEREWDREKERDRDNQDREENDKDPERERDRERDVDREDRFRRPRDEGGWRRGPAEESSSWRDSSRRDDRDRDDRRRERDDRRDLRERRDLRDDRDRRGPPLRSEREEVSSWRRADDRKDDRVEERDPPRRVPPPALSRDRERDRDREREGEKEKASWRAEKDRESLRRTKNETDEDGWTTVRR
UniProt Q8N5X7: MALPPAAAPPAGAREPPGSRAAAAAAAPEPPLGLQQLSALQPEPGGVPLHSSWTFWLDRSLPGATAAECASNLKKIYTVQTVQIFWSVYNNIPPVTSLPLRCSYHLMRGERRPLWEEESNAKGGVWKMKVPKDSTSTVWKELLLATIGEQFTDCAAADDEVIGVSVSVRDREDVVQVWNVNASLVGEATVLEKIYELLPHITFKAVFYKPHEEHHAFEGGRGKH
UniProt Q96JJ3: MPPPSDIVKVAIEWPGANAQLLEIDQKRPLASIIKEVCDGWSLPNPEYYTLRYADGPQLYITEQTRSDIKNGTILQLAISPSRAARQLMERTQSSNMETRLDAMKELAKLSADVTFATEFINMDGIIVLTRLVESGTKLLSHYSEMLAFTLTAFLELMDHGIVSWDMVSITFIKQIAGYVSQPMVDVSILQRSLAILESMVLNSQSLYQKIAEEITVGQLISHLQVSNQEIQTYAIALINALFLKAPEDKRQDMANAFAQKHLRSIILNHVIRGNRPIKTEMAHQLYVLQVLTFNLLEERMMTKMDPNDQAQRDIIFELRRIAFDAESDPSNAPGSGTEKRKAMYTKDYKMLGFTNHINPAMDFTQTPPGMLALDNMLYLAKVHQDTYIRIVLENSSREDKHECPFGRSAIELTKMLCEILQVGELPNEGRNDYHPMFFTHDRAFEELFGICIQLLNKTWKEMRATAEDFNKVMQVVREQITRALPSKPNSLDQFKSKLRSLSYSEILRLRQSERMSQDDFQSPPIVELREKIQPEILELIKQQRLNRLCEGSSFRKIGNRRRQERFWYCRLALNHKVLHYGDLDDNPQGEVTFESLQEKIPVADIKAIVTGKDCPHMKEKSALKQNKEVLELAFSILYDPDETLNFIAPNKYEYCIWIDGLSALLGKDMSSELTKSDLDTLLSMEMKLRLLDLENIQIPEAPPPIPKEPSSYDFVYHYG
UniProt Q6ZTU2, whole entry, looked up: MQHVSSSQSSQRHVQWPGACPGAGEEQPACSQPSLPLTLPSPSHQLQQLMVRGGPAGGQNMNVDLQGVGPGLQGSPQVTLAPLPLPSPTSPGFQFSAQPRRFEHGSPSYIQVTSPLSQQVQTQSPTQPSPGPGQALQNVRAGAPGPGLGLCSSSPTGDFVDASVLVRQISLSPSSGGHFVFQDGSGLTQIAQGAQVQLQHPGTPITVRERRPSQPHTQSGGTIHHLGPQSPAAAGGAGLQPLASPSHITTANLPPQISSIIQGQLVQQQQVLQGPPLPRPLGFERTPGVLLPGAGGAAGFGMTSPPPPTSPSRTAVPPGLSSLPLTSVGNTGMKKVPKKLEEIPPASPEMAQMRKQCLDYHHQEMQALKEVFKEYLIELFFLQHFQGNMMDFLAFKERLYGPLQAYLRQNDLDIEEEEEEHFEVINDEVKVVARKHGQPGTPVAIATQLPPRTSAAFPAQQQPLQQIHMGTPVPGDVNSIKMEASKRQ
UniProt Q6P179: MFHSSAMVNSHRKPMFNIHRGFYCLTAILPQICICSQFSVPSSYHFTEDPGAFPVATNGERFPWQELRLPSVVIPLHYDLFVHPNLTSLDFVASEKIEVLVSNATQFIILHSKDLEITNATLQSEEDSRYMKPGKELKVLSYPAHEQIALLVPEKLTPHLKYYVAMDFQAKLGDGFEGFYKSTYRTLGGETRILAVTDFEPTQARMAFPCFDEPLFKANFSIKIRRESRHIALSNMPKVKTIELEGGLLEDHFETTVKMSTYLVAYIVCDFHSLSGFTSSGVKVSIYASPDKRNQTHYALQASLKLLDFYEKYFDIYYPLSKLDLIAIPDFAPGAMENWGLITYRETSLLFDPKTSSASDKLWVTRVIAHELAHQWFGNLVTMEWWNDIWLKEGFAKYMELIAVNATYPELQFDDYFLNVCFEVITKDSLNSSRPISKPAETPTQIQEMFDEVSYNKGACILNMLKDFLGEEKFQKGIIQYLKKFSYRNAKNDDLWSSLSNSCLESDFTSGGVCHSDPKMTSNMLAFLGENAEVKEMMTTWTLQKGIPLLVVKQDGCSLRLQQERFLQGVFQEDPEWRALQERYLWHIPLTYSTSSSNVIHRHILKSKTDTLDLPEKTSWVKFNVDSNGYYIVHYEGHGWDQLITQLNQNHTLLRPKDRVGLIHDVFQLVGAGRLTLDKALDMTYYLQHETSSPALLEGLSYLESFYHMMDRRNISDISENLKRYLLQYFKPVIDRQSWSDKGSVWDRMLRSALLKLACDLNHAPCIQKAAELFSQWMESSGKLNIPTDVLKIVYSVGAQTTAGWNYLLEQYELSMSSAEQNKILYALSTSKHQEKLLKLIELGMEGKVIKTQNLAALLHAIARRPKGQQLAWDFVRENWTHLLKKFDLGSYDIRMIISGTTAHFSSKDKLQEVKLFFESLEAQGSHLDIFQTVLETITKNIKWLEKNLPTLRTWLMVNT
UniProt Q53HC9: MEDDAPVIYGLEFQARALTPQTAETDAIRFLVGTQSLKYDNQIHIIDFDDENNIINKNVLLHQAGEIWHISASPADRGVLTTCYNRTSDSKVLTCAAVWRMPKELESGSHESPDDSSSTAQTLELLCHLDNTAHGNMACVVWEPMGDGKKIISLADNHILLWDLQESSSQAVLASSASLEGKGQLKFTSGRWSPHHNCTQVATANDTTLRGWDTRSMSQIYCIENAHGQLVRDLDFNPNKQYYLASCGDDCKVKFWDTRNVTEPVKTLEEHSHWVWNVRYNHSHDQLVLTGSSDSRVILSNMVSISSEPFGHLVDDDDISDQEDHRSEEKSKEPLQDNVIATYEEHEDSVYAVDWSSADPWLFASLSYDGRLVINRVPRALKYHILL
UniProt Q9H5J4: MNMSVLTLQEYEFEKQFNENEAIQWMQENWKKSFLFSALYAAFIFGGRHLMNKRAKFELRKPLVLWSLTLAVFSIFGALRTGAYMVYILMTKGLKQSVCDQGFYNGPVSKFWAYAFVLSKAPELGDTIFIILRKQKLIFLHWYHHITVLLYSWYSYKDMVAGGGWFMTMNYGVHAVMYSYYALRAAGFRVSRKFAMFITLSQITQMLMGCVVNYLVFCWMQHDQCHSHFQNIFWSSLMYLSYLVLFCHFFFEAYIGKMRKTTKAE
UniProt Q03468, whole entry, looked up: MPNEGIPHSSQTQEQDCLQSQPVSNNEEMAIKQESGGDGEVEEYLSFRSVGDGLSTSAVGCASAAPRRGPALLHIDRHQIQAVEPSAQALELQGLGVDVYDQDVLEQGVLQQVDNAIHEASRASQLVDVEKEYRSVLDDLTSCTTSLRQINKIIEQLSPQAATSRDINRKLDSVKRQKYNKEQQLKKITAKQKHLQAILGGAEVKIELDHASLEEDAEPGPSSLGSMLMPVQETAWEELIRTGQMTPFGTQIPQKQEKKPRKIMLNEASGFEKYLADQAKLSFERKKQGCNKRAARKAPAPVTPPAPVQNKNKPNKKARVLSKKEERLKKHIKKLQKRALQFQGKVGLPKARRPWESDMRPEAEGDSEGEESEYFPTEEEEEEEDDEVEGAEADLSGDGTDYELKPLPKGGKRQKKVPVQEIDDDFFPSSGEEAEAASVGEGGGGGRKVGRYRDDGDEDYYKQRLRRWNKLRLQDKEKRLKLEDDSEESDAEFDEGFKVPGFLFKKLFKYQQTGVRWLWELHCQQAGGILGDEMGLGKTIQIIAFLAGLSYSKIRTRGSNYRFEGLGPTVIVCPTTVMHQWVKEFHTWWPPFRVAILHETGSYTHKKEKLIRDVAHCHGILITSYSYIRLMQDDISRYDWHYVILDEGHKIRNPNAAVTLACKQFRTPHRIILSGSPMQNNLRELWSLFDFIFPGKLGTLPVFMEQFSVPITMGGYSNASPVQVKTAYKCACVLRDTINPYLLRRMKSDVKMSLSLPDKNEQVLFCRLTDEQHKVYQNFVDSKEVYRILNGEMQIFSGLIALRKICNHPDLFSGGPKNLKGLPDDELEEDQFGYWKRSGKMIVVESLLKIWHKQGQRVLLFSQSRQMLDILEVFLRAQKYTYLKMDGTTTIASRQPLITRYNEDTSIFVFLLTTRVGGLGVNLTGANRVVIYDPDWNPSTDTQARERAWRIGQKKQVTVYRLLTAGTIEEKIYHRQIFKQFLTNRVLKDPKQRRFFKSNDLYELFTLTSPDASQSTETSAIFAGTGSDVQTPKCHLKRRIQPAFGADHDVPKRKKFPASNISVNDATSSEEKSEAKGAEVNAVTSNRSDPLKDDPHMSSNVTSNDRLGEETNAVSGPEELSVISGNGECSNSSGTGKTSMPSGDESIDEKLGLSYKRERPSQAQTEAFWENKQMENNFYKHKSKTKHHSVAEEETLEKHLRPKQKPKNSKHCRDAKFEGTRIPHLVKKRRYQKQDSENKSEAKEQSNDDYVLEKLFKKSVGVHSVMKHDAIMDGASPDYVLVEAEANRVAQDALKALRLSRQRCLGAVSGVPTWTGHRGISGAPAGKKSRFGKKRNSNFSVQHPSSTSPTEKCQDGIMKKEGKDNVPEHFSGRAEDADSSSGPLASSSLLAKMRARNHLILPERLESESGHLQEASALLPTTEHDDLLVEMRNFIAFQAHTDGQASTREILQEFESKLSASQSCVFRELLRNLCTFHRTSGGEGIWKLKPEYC

Columns and labels:
Experiment in all cases: log2 fold change, soluble protein after heating vs DMSO (PISA); higher = thermal stabilisation; K562 lysate, 10 uM; active = over 0.2 and 3.5 SD of the protein, either way, in both replicates (recomputed)
erlotinib = compound: C#Cc1cccc(Nc2ncnc3cc(OCCOC)c(OCCOC)cc23)c1 [erlotinib]
Procedure, shortened: (§1)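 The values are log-two fold changes in thermal stability compared with solvent controls and come from duplicates. They were obtained by TMTpro 16plex LC-MS/MS, with channel sums equalised, on the supernatant after 21,000xg for 90 min. That supernatant came from crude K562 extract at 1 mg/mL protein treated with 10 μM compound for 30 min, heated for 3 min across 48°C-58°C, pooled and brought to 0.5% NP-40 at 4°C.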

[1] = compound: C/C(=N\NC(=O)C1=CC(=CC=C1)S(=O)(=O)N2CCOCC2)/C3=C(C=CC(=C3)Cl)O
Procedure, shortened: as §1

[2] = compound: C1=CC(=CC=C1C2=NC3=C(N2)C=C(C=C3)C(=O)N)OC4=CC=C(C=C4)Cl
Procedure, shortened: as §1

[3] = compound: C1=CC2=C(C=CC(=C2)/C=C\3/C(=O)NC(=NCC4=CC=CS4)S3)N=C1
Procedure, shortened: as §1

[4] = compound: C1=CC2=NC=CN=C2C=C1/C=C/3\C(=O)NC(=O)S3
Procedure, shortened: as §1

[5] = compound: C1=CC=C(C=C1)C2=NC(=C(N2)C3=CC=NC=C3)C4=CC(=C(C=C4)Cl)O
Procedure, shortened: as §1

[6] = compound: C1=CC=C2C(=C1)C3=NNC4=CC=CC(=C43)C2=O
Procedure, shortened: as §1

[7] = compound: C1CCN(C1)C(=O)NC2=CC=CC(=C2)NC3=NC=C(C(=N3)NCCC4=CN=CN4)Br
Procedure, shortened: as §1

[8] = compound: C1CN(CCC1(CC2=CC=C(C=C2)Cl)N)C3=NC=NC4=C3C=CN4
Procedure, shortened: as §1

IRAK-1-4 Inhibitor I = compound: C1COCCN1CCN2C3=CC=CC=C3N=C2NC(=O)C4=CC(=CC=C4)[N+](=O)[O-] [IRAK-1-4 Inhibitor I]
Procedure, shortened: as §1

ibrutinib = compound: C=CC(=O)N1CCC[C@@H](n2nc(-c3ccc(Oc4ccccc4)cc3)c3c(N)ncnc32)C1 [ibrutinib]
Procedure, shortened: as §1

[9] = compound: CC(=O)c1cnc2ccc(-c3cc(Cl)c(O)c(Cl)c3)nc2c1N[C@H]1CC[C@H](CN(C)C)CC1
Procedure, shortened: as §1

ralimetinib = compound: CC(C)(C)Cn1c(N)nc2ccc(-c3[nH]c(C(C)(C)C)nc3-c3ccc(F)cc3)nc21 [ralimetinib]
Procedure, shortened: as §1

[10] = compound: CC(C)(O)CC(=O)NCCn1ccc2ncnc(Nc3ccc(Oc4cccc(C(F)(F)F)c4)c(Cl)c3)c21
Procedure, shortened: as §1

[11] = compound: CC(C)C1=C2N=C(C=C(N2N=C1)NCC3=CC=CC=C3)NCCCCCCN
Procedure, shortened: as §1

[12] = compound: CC1=C(C(CC(=O)N1)C2=CC=C(C=C2)C(F)(F)F)C(=O)NC3=C(C=C4C(=C3)C=NN4)F
Procedure, shortened: as §1

[13] = compound: CC1=C(C2=C(C=C1)C(=O)C3=CC=CC=C3N2CCCN)C
Procedure, shortened: as §1

[14] = compound: CC1=C(C=C(C=C1)NC(=O)C2=CC(=CC=C2)C(C)(C)C#N)NC3=CC4=C(C=C3)N=CN(C4=O)C
Procedure, shortened: as §1

[15] = compound: CC1=C(C=C(C=C1)NC(=O)C2=CC(=CC=C2)N(C)C)NC(=O)C3=CC=C(C=C3)O
Procedure, shortened: as §1

[16] = compound: CC1=CC=C(C=C1)SC2=C3C=C(SC3=CN=C2)C(=O)N
Procedure, shortened: as §1

Measured: log2 fold change

EIF3A (UniProt Q14152)
inactive: erlotinib -0.004 | [1] 0.04 | [2] -0.045 | [3] 0.028 | [4] 0.027 | [5] -0.008 | [6] -0.011 | [7] -0.002 | [8] 0.013 | IRAK-1-4 Inhibitor I -0.008 | ibrutinib 0.01 | [9] 0.014 | ralimetinib 0.02 | [10] 0.019 | [11] -0.003 | [12] -0.013 | [13] -0.021 | [14] -0.039 | [15] 0.044 | [16] 0.023

EIF4E3 (UniProt Q8N5X7)
inactive: erlotinib 0.101 | [1] 0.175 | [2] -0.194 | [3] -0.08 | [6] 0.054 | [7] -0.087 | [8] -0.095 | [11] 0.121 | [12] -0.272 | [14] -0.044

ELMO2 (UniProt Q96JJ3)
inactive: erlotinib -0.002 | [1] 0.053 | [2] -0.069 | [3] -0.03 | [5] 0.007 | [6] -0.33 | IRAK-1-4 Inhibitor I -0.114 | [9] 0.077 | ralimetinib 0.003 | [10] -0.028 | [11] 0.01 | [12] 0.025 | [13] -0.087 | [14] 0.243 | [15] 0.085 | [16] -0.11

2 entries drawn at random from the list so far:
EIF4E3 (UniProt Q8N5X7)
inactive: erlotinib 0.101 | [1] 0.175 | [2] -0.194 | [3] -0.08 | [6] 0.054 | [7] -0.087 | [8] -0.095 | [11] 0.121 | [12] -0.272 | [14] -0.044

EIF3A (UniProt Q14152)
inactive: erlotinib -0.004 | [1] 0.04 | [2] -0.045 | [3] 0.028 | [4] 0.027 | [5] -0.008 | [6] -0.011 | [7] -0.002 | [8] 0.013 | IRAK-1-4 Inhibitor I -0.008 | ibrutinib 0.01 | [9] 0.014 | ralimetinib 0.02 | [10] 0.019 | [11] -0.003 | [12] -0.013 | [13] -0.021 | [14] -0.039 | [15] 0.044 | [16] 0.023

Remaining list, next part:

EP400P1 isoform 6 (UniProt Q6ZTU2)
inactive: erlotinib 0 | [1] -0.255 | [2] -0.045 | [3] -0.247 | [4] -0.097 | [5] 0.004 | [6] 0.155 | [7] -0.028 | [8] 0.049 | IRAK-1-4 Inhibitor I 0.02 | ibrutinib 0.104 | [9] -0.168 | ralimetinib -0.053 | [10] -0.017 | [11] -0.021 | [12] -0.004 | [13] -0.04 | [14] 0.096 | [15] 0.015 | [16] 0.038

ERAP2 (UniProt Q6P179)
inactive: erlotinib -0.076 | [2] 0.054 | [4] -0.177 | [5] -0.015 | [7] 0 | [8] -0.029 | IRAK-1-4 Inhibitor I 0.056 | ibrutinib 0.162 | [9] 0.002 | ralimetinib -0.006 | [10] -0.111 | [11] 0.046 | [14] 0.079 | [15] 0 | [16] 0.035

EIPR1 (UniProt Q53HC9)
inactive: erlotinib 0.011 | [1] -0.012 | [2] -0.002 | [3] -0.033 | [4] -0.019 | [5] 0.019 | [6] -0.017 | [7] -0.016 | [8] 0.004 | IRAK-1-4 Inhibitor I 0.004 | ibrutinib -0.012 | [9] -0.038 | ralimetinib 0.008 | [10] -0.009 | [11] -0.021 | [12] 0.002 | [13] -0.069 | [14] 0.031 | [15] -0.038 | [16] -0.013

ELOVL6 (UniProt Q9H5J4)
inactive: erlotinib -0.491 | [1] 0.352 | [2] -0.061 | [3] 0.37 | [6] -0.01 | [9] 0.042 | [11] -0.057 | [12] 0.069 | [13] 0.137 | [14] 0.021 | [16] -0.022

ERCC6 (UniProt Q03468)
inactive: erlotinib -0.073 | [1] 0.21 | [2] -0.023 | [3] -0.01 | [4] -0.062 | [5] -0.014 | [6] 0.057 | [7] -0.131 | [8] -0.119 | IRAK-1-4 Inhibitor I 0.03 | ibrutinib 0.05 | [9] 0.004 | ralimetinib -0.017 | [10] -0.02 | [11] 0.046 | [12] -0.005 | [13] 0.217 | [15] -0.009 | [16] -0.004

EPS15L1 (UniProt M0QY01)
inactive: erlotinib 0.017 | [1] -0.047 | [2] 0.082 | [3] -0.078 | [6] -0.081 | [7] -0.054 | [8] 0.027 | [9] 0.08 | [11] -0.098 | [13] 0.043 | [16] -0.061
